{"source": "PubChem BioAssay AID720533", "about": "(National Center for Advancing Translational Sciences (NCATS), 2013)", "note": "“And” between values parts separate entries of the source, which are not always exact repeats. Equal entries are not always repeated. Screen size: about 18,000 compounds; about 750 (4.2%) were called active. This list was built around the results that the source calls inconclusive (neither active nor inactive); the mix of calls is not that of the screen. Calls come from the whole dose curve; tested in HEK293 cells. A potency beside an inconclusive call is a rough fit, not a confirmed value. Where a structure was tested more than once in an assay, its records may differ in their call. % is set by controls: 0 for no effect and ±100 for the full control effect; potency is the fitted concentration of half-maximal effect."}
{"assay": "qHTS for Inhibitors of binding or entry into cells for Lassa Virus", "details": "Lassa virus pseudotyped entry inhibition, cell-based qHTS; activity change, negative = inhibition: at 49.2 µM (top of the series) unless noted"}
{"smiles": "CC(=O)C1CC[C@H]2C3CC[C@@H]4CC(O)CC[C@@]4(C)C3CC[C@]12C", "note": "(stereo not given in full)", "activity change, negative = inhibition": "inactive: -10.6%"}
{"smiles": "Cc1cccc(CNc2ncnc3ccc(-c4cccnc4)cc23)c1", "Potency": "inconclusive: 8.91 µM [inhibitor, partial curve, poor fit]"}
{"smiles": "CN1CC(O)C2=CC(=O)C(=O)C=C21", "note": "(stereo not given)", "activity change, negative = inhibition": "inactive: 0.59%"}
{"smiles": "O=C(Cc1ccccc1)Nc1nc2ccc(Cl)cc2c2nc(-c3ccco3)nn12", "Potency": "inconclusive: 22.4 µM [inhibitor, partial curve]"}
{"smiles": "COc1ccc2c(c1)OC(C)(C)C(c1ccccc1)C2c1ccc(OCCN2CCCC2)cc1", "note": "(stereo not given)", "Potency": "inconclusive: 15.8 µM [inhibitor, full curve]"}
{"smiles": "O=S(=O)(O)c1cc(I)c(O)c2ncccc12", "Potency": "inconclusive: 25.1 µM [inhibitor, partial curve, poor fit]"}
{"smiles": "O=C1[C@@H]2[C@H]3[C@H](O)[C@H](O)CC(=NOC[C@@H](O)COCc4ccco4)[C@@H]3CC[C@H]2C(=O)N1C1CCCCC1", "activity change, negative = inhibition": "inactive: 0.625% [at 8.59 µM]"}
{"smiles": "CC(C)=CCC1=C(O)c2ccccc2C(=O)C1=O", "Potency": "inconclusive: 3.55 µM [inhibitor, full curve] and inconclusive: 25.1 µM [inhibitor, single point]"}
{"smiles": "CCCN(CCC)c1c([N+](=O)[O-])cc(S(N)(=O)=O)cc1[N+](=O)[O-]", "Potency": "inconclusive: 31.6 µM [inhibitor, partial curve]"}
{"smiles": "O=C(Cc1ccc(Cl)c(Cl)c1)N1CCCCC1CN1CCCC1", "note": "(stereo not given)", "Potency": "inconclusive: 14.1 µM [inhibitor, single point]"}
{"smiles": "CN(C)C(=O)OC1=C(c2ccccc2)Sc2ccccc2-n2cccc21", "Potency": "inconclusive: 10 µM [inhibitor, partial curve, poor fit]"}
{"smiles": "CN1CCOC(c2ccccc2)c2ccccc2C1", "note": "(stereo not given)", "Potency": "inconclusive: 15.8 µM [inhibitor, single point]"}
{"smiles": "NCCCNCCCCNCCCNC(=O)Cc1ccc(O)cc1", "Potency": "inconclusive: 3.98 µM [inhibitor, single point]"}
{"smiles": "CN1CCC(=C2c3ccccc3CCc3sccc32)CC1", "Potency": "inactive and active: 22.4 µM"}
{"smiles": "N=c1ccn2c(n1)OCC1C2O[C@@H](O)[C@H]1O", "note": "(stereo not given in full)", "Potency": "inconclusive: 6.31 µM [inhibitor, partial curve]"}
{"smiles": "CCc1cc(-c2n[nH]c(C)c2-c2ccc3c(c2)OCCO3)c(O)cc1O", "Potency": "inconclusive: 10 µM [inhibitor, partial curve]"}
{"smiles": "Cc1ccsc1C1Cc2c(C(=O)NCc3cccnc3)c(=O)cc(C)n2-c2ccccc2S1", "note": "(stereo not given)", "activity change, negative = inhibition": "inactive: -6.69%"}
{"smiles": "Cc1cccc(CNc2ncnc3ccc(-c4cccc(C#N)c4)cc23)c1", "Potency": "inconclusive: 17.8 µM [inhibitor, single point]"}
{"smiles": "COc1ccc(NC(=O)c2ccc(-c3ccc(-c4noc(C)n4)cc3C)cc2)cc1N1CCN(C)CC1", "Potency": "active: 15.8 µM"}
{"smiles": "COC(=O)Nc1nc2ccc(Oc3ccc(NC(=O)Nc4cccc(Br)c4)cc3)cc2[nH]1", "Potency": "inconclusive: 17.7 µM [inhibitor, partial curve, poor fit]"}
{"smiles": "c1ccc(Oc2nc(NC3CCCCC3)c3[nH]cnc3n2)cc1", "Potency": "inconclusive: 22.4 µM [inhibitor, single point]"}
{"smiles": "O=C1CCc2ccc(OCCCCN3CCN(c4cccc(Cl)c4Cl)CC3)cc2N1", "Potency": "inconclusive: 39.8 µM [inhibitor, single point]"}
{"smiles": "COc1ccccc1C1CN(Cc2cccn2-c2ncccn2)Cc2ccccc2O1", "note": "(stereo not given)", "Potency": "inconclusive: 35.5 µM [inhibitor, partial curve]"}
{"smiles": "c1ccc([C@@H]2CN3CCSC3=N2)cc1", "activity change, negative = inhibition": "inactive: -4.86% [at 17.8 µM]"}
{"smiles": "CN(C)CCOC(c1ccc(Cl)cc1)c1ccccn1", "note": "(stereo not given)", "Potency": "inactive"}
{"smiles": "COC1[C@@H](OC)C[C@H](C)[C@@H](OC)C2=CC(=O)C=C(NC(=O)/C(C)=C/C=C\\[C@H](OC)[C@@H](OC(N)=O)/C(C)=C/[C@@H]1C)C2=O", "note": "(stereo not given in full)", "Potency": "inconclusive: 35.5 µM [inhibitor, single point]"}
{"smiles": "CN(c1ccc(NC(=O)Nc2c(Cl)cccc2Cl)cc1)c1ccnc(Nc2cccc(CS(C)(=O)=O)c2)n1", "activity change, negative = inhibition": "inactive: -48.5%"}
{"smiles": "CC(=O)Nc1ccc(OCCOCCOc2ccc(NC(C)=O)cc2)cc1", "Potency": "inconclusive: 35.5 µM [inhibitor, single point]"}
{"smiles": "CCCCCCCCCCCC1=C(O)C(=O)C=C(O)C1=O", "Potency": "active: 28.2 µM"}
{"smiles": "COc1ccc2ccccc2c1-c1c(OC)ccc2ccccc12", "Potency": "inconclusive: 0.708 µM [inhibitor, full curve, poor fit]"}
{"smiles": "C#CCN1C(=O)[C@]2(OC[C@@H]3Cc4ccccc4[C@@H]3C=C2C)c2ccccc21", "activity change, negative = inhibition": "inconclusive: -18.5% [inhibitor] [at 8.59 µM]"}
{"smiles": "NCCNS(=O)(=O)c1cccc2c(Cl)cccc12", "Potency": "inconclusive: 35.5 µM [inhibitor, single point]"}
{"smiles": "Cc1ccccc1C(OCCN(C)C)c1ccccc1", "note": "(stereo not given)", "Potency": "inactive"}
{"smiles": "COC(=O)C1=C(C)NC(C)=C(C(=O)OCCN(C)Cc2ccccc2)C1c1cccc([N+](=O)[O-])c1", "note": "(stereo not given)", "Potency": "active: 25.1 µM"}
{"smiles": "CC(C)=CCc1c2c(c3occ(-c4ccc(O)cc4)c(=O)c3c1O)C=CC(C)(C)O2", "Potency": "inconclusive: 35.5 µM [inhibitor, single point]"}
{"smiles": "COC(=O)C1=C(C)NC(C)=C(C(=O)OCC(C)C)C1c1ccccc1[N+](=O)[O-]", "note": "(stereo not given)", "Potency": "inconclusive: 15.8 µM [inhibitor, full curve, poor fit]"}
{"smiles": "Cc1ccc(S(=O)(=O)N2CCC(=O)N([C@H](COCc3ccc(C(F)(F)F)cc3)Cc3ccccc3)CC2)cc1", "Potency": "inconclusive: 3.55 µM [inhibitor, full curve]"}
{"smiles": "CC[C@@H]1/C=C(\\C)C[C@H](C)C[C@H](OC)[C@H]2O[C@@](O)(C(=O)C(=O)N3CCCC[C@H]3C(=O)O[C@H](/C(C)=C/[C@@H]3CC[C@@H](O)[C@H](OC)C3)[C@H](C)[C@@H](O)CC1=O)[C@H](C)C[C@@H]2OC", "Potency": "inconclusive: 35.5 µM [inhibitor, single point]"}
{"smiles": "O=c1cc(-c2ccc(O)cc2)oc2cc(O[C@H]3OC(CO)C(O)C(O)C3O)cc(O)c12", "note": "(stereo not given in full)", "activity change, negative = inhibition": "inactive: 44.5%"}
{"smiles": "C=C1[C@@H](O)C2C=CC[C@H](C)C(=O)[C@@](C)(O)C=C[C@@H](OC(C)=O)[C@@]23C(=O)N[C@H](Cc2ccccc2)[C@@H]3[C@@H]1C", "note": "(stereo not given in full)", "Potency": "inconclusive: 28.2 µM [inhibitor, partial curve, poor fit]"}
